{
  "source": "patent US20240350430A1",
  "about": "“GROWTH INHIBITOR OF METASTATIC HUMAN PROSTATE CANCER CELLS” (Watanabe Oyster Laboratory Co., Ltd., priority 2021, published 2024)",
  "tested_on": "PC-3 cells",
  "test": "Cell growth of PC-3 cells (cell counting)",
  "assay_type": "cell-based, human",
  "conditions": "three days, wortmannin 10 or 100 nM, PD98059 1 or 10 μM, staurosporine 1 or 10 nM",
  "description": "The PC-3 and DU-145 cells (the cell number of 1×10^5/in 1 ml of a culture fluid per hole using a 24-hole plate) were cultured in a DMEM culture fluid (containing 10% of FBS, 1% of P/S, and 1% of fungizone) containing the DHMBA (1 and 10 μM) under 5% of CO2, at 37° C., for one, two, three, four, and six days. […] The cell number in the cell suspension was counted by the method described in the item of “Measurement of Cell Number.”\nAfter the culture of the cells, 0.1 ml of 0.05% trypsin-EDTA solution obtained by dissolving the cells adhering to the bottom surface of the culture dish in PBS (Thermo Fisher Scientific, Waltham, MA, USA) not containing Ca^2+/Mg^2+ was added, incubation was performed at 37° C. for two minutes to release the adhering cells, and 0.9 ml of the DMEM culture fluid containing 10% of FBS and 1% of P/S was added to stop the reaction. The visible cells were counted by the Olympus MTV-3 microscope using a hemocytometer (Sigma-Aldrich). […]\nIn FIGS. 1(D) and 1(E), the PC-3 cells (1×10^5 cells/per well of a 24-well plate) were cultured under 5% of CO2, at 37° C., for three (FIG. 1D) and six (FIG. 1E) days in a DMEM culture fluid (containing 10% of FBS, 1% of P/S, and 1% of fungizone) containing the DHMBA (0.01, 0.1, 1, 10, 100, and 1000 μM). After the culture, the cells adhered to the bottom surface of the dish were removed and counted. […]",
  "data": [
    {"smiles": "CN[C@@H]1C[C@H]2O[C@@](C)([C@@H]1OC)n1c3ccccc3c3c4c(c5c6ccccc6n2c5c31)C(=O)NC4", "note": "[staurosporine, reference compound]", "values": [
      {"measurement": "cell growth in the presence of intracellular signaling inhibitor alone", "result": "inhibited"}
    ]}
  ]
}
